pIC50: −log10 of the molar value.
Target: Protein kinase C (PKC)

**Q.** `CC/C(=C(\c1ccccc1)c1ccc(OCCN(C)C)cc1)c1ccccc1` [TAMOXIFEN] was tested. Which pIC50 did it give?
**A.** The pIC50 was 5.00 to 6.00.

— ChEMBL document CHEMBL3861995 (Bioorg Med Chem, 2016)
